In patent publication US20130109629A1:
Results are given in words; binding and its absence hold for the method and conditions named. Some binding calls cover weakened binding; strength is not graded here.

Protein sequences, listed by entry. Tags and fused reporters are not part of them. Lines headed by an entry give the natural chain unless they say otherwise; changes in a name come on top.
UniProt P78556: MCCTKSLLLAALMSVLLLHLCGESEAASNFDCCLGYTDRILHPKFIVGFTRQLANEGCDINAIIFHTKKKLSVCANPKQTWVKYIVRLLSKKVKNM

T1: soluble CCR6 (sCCR6) in human serum (human) (UniProt P51684)
T1 sequence (looked up): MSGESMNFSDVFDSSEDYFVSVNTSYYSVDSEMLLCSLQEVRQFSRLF


What was measured:
[1] = biological target: T1, soluble CCR6 (sCCR6) in human serum (human); assay: sera preincubated with 100 ng/ml CCL20, then sandwich CCR6 ELISA
[2] = biological target: T1, soluble CCR6 (sCCR6) in human serum (human); assay: blocking of sCCR6 detection by ELISA with CCL20 (100 ng/ml, 1 h), three sera of healthy volunteers
[3] = biological target: T1, soluble CCR6 (sCCR6) in human serum (human); assay: blocking of sCCR6 detection in sandwich CCR6 ELISA
[4] = biological target: T1, soluble CCR6 (sCCR6) in human serum (human); assay: sera preincubated with 100 ng/ml CCL18, then sandwich CCR6 ELISA
[5] = biological target: T1, soluble CCR6 (sCCR6) in human serum (human); assay: blocking of sCCR6 detection by ELISA with CCL18 (100 ng/ml, 1 h), three sera of healthy volunteers

| binding [1] | binding [2] | binding [3] | binding [4] | binding [5] | Molecule |
| --- | --- | --- | --- | --- | --- |
| binds | binds | binds |  |  | CCL20 (from UniProt P78556 27-96) (ligand) |
|  |  | binds | binds | binds | human recombinant CCL18 (ligand) AQVGTNKELCCLVYTSWQIPQKFIVDYSETSPQCPKPGVILLTKRGRQICADPNKKWVQKYISDLKLNA |
